Measurements published in the supplement of paper PMC10849652.
The other results are listed elsewhere or left out.

Amino acid sequences for entries named in this document (tags omitted). A change or cut given only in a name is not applied to a line headed by its entry.
UniProt O95295: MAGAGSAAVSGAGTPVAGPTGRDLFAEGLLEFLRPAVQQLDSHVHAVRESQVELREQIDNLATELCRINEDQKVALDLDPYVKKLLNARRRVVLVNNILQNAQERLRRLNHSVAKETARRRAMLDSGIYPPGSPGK
UniProt Q00796: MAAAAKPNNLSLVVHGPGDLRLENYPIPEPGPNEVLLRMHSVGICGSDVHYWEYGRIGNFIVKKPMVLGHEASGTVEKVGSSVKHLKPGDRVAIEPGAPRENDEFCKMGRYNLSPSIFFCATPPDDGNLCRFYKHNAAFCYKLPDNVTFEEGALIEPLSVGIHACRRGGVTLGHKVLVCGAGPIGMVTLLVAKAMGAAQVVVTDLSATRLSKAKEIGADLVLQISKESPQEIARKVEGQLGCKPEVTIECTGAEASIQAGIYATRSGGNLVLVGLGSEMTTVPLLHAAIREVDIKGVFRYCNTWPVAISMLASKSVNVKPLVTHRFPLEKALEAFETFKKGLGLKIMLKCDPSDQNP
UniProt P62308, whole entry, looked up: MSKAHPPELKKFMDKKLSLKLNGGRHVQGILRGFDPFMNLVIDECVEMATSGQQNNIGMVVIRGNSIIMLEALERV
UniProt Q8WVI0: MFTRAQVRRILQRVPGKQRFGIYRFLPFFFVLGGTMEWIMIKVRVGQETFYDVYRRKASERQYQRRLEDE
UniProt O75971: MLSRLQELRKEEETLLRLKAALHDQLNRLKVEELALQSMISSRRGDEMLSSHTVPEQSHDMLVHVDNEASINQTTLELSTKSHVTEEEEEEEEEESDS
UniProt Q14683: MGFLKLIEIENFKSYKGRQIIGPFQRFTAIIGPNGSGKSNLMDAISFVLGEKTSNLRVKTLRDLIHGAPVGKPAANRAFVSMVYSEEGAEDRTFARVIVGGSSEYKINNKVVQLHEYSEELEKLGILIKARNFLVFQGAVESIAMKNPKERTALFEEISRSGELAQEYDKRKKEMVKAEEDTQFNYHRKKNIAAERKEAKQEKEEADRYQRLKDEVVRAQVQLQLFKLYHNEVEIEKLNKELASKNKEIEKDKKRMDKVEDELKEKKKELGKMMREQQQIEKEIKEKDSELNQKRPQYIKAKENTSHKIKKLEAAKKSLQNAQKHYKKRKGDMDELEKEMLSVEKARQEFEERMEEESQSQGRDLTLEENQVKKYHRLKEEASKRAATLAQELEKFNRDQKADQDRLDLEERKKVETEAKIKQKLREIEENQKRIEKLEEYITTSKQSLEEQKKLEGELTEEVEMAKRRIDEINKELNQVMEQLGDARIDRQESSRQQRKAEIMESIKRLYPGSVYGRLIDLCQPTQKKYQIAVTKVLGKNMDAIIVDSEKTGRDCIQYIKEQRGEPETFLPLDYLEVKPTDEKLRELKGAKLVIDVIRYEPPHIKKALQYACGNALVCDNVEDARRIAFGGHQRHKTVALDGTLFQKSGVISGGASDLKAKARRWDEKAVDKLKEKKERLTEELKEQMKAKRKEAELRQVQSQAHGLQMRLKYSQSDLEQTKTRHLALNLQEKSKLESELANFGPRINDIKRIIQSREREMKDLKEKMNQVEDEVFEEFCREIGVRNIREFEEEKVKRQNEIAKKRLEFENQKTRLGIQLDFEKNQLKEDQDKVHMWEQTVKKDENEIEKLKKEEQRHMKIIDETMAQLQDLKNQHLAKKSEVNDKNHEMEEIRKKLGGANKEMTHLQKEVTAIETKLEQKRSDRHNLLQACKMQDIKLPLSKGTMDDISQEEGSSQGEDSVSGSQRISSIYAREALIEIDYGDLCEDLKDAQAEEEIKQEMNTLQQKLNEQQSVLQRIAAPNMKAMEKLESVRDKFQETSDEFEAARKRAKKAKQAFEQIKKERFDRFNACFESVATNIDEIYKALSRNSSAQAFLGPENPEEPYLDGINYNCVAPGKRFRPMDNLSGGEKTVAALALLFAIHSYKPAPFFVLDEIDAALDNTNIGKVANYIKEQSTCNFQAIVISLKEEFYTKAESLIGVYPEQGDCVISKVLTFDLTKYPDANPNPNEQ
UniProt B2RUZ4: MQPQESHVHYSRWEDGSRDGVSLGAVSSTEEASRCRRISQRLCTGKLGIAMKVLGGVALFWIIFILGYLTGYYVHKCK
UniProt O60271: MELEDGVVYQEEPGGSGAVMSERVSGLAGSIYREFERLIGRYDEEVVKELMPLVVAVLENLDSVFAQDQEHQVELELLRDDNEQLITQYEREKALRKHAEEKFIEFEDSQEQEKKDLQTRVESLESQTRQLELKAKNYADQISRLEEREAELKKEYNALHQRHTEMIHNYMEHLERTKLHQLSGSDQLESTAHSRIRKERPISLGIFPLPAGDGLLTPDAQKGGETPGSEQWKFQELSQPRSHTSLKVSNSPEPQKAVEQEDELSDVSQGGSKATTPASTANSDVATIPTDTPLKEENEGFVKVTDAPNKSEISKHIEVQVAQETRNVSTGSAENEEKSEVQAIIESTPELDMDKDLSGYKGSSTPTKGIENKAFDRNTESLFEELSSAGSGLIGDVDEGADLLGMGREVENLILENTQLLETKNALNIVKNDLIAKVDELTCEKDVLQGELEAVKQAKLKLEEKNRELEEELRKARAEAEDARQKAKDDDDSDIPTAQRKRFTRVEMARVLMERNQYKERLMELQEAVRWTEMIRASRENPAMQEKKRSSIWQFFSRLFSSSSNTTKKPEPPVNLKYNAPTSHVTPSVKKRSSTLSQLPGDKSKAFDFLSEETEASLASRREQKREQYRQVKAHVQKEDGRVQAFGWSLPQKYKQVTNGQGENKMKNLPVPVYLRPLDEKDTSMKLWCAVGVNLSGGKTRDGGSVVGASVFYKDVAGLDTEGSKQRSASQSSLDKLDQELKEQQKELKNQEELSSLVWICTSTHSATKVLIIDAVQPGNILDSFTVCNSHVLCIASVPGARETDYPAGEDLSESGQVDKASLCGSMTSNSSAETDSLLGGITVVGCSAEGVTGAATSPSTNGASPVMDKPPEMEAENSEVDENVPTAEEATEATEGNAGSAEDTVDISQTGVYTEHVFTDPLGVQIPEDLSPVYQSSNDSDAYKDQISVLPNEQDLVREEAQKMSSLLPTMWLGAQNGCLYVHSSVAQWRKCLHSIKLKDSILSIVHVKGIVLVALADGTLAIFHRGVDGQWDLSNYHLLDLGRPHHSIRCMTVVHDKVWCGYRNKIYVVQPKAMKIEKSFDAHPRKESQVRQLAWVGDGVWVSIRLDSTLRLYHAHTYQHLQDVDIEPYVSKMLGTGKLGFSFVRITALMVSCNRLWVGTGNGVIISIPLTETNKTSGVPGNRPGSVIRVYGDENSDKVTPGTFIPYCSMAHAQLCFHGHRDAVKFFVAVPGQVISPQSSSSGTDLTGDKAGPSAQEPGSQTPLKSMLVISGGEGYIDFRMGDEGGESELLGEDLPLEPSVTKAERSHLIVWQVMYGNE
UniProt Q9UNH7: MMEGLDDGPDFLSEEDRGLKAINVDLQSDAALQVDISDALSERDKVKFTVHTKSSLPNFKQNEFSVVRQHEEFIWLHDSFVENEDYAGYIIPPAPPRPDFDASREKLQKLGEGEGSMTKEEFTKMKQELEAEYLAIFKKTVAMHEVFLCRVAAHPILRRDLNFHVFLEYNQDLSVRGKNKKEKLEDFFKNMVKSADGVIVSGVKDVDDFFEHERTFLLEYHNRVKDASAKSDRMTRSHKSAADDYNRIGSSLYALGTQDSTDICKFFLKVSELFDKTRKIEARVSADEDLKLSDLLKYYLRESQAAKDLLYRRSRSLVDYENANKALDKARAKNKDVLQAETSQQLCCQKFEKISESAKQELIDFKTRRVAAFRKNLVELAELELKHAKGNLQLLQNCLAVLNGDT
UniProt Q8TEV9: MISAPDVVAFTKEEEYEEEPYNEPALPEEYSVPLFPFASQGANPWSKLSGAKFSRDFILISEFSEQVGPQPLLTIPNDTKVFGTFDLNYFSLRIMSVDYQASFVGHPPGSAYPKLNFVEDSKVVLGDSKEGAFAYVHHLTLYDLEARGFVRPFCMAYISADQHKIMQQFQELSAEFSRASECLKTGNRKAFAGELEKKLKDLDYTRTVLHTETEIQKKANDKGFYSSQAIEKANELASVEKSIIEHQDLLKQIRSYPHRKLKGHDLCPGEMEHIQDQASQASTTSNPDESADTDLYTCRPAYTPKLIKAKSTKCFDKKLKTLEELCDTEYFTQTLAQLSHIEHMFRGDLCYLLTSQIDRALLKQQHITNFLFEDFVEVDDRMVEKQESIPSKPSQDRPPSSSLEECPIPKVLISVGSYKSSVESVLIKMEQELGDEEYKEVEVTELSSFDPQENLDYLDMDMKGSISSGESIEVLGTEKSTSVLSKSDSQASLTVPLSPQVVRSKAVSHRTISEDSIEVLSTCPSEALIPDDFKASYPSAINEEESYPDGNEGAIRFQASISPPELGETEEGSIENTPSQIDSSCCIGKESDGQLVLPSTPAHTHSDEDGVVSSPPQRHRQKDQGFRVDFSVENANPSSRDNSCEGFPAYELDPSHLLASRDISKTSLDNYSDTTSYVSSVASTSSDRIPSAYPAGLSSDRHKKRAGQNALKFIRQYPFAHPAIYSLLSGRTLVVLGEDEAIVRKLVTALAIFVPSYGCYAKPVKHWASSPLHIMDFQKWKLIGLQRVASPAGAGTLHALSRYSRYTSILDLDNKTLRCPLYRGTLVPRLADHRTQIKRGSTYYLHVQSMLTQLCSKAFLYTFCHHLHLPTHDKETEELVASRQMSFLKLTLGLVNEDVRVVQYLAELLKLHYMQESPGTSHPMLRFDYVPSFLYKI
UniProt P04179: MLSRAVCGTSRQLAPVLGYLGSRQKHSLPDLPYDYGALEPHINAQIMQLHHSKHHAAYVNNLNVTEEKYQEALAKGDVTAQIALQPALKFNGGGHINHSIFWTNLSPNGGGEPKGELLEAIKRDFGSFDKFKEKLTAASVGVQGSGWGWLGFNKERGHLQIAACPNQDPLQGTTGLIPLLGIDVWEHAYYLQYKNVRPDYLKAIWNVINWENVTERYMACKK
UniProt Q5SQN1: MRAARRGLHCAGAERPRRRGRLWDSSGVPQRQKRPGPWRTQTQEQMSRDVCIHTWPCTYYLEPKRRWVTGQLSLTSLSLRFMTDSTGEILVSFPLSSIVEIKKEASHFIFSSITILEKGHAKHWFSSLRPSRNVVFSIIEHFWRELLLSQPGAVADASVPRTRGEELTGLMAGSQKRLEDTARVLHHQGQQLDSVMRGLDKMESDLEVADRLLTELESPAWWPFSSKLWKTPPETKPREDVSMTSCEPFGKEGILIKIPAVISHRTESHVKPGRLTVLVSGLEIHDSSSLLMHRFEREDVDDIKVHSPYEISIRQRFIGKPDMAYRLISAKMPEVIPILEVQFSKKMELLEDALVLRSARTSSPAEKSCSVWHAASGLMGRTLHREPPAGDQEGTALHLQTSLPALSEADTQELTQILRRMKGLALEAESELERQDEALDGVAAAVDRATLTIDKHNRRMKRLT
UniProt P35711: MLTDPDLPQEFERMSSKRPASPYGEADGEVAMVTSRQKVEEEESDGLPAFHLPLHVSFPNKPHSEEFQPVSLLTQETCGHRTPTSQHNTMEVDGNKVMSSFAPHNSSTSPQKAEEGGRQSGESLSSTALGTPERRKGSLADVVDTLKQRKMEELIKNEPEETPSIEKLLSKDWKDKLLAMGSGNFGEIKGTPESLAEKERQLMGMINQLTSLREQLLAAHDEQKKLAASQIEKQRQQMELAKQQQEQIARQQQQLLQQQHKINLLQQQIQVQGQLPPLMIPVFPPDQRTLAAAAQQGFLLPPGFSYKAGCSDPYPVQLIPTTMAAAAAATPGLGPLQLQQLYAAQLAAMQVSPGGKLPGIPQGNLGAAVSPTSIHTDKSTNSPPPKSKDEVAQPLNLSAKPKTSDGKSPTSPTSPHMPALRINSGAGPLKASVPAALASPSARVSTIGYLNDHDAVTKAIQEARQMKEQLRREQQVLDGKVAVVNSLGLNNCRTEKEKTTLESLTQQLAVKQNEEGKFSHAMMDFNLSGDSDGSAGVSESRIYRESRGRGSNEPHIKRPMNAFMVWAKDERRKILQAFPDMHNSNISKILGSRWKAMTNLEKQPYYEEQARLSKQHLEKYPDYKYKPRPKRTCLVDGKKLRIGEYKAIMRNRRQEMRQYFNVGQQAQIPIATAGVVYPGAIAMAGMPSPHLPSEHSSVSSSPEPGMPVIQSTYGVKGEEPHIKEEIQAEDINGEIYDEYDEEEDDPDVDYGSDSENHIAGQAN
UniProt Q8WU79: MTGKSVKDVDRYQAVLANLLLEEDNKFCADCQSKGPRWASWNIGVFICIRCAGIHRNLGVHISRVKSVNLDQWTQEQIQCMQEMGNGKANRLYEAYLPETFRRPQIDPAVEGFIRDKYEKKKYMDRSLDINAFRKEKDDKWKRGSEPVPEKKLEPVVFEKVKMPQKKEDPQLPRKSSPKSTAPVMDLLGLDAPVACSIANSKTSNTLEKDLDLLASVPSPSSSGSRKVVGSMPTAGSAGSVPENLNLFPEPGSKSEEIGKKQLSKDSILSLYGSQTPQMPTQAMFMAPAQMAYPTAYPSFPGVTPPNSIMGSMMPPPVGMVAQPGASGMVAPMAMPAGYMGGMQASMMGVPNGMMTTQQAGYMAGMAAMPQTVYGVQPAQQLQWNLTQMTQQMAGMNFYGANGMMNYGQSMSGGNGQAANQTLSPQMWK

Columns and labels:
Assay in all cases: log2 fold change, soluble protein after heating vs DMSO (PISA); higher = thermal stabilisation; K562 cells, 10 uM, 30 min; active = over 0.2 and 3.5 SD of the protein, either way, in both replicates (recomputed)
erlotinib = compound: C#Cc1cccc(Nc2ncnc3cc(OCCOC)c(OCCOC)cc23)c1 [erlotinib]
Method in brief: (§1)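 Values are thermal stability changes relative to control samples and are taken from duplicates. They are stated as log2 fold changes. Before quantification by TMTpro 16plex LC-MS/MS with equalised channel sums, K562 cells at 2×10^6 cells/mL were treated with 10 μM compound for 30 min, heated in aliquots for 3 min across 48°C-58°C, pooled, extracted in PBS with 0.5% NP-40 at 4°C, and centrifuged at 21,000xg for 90 min to give the soluble supernatant.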

[1] = compound: C/C(=N\NC(=O)C1=CC(=CC=C1)S(=O)(=O)N2CCOCC2)/C3=C(C=CC(=C3)Cl)O
Method in brief: as §1

[2] = compound: C1=CC(=C(C=C1Cl)C2=NC3=NC=CN=C3C(=N2)NC4=CC=NC=C4)F
Method in brief: as §1

[3] = compound: C1=CC(=CC=C1C2=NC3=C(N2)C=C(C=C3)C(=O)N)OC4=CC=C(C=C4)Cl
Method in brief: as §1

[4] = compound: C1=CC2=C(C=CC(=C2)/C=C\3/C(=O)NC(=NCC4=CC=CS4)S3)N=C1
Method in brief: as §1

[5] = compound: C1=CC2=NC=CN=C2C=C1/C=C/3\C(=O)NC(=O)S3
Method in brief: as §1

[6] = compound: C1=CC=C(C=C1)C2=NC(=C(N2)C3=CC=NC=C3)C4=CC(=C(C=C4)Cl)O
Method in brief: as §1

[7] = compound: C1=CC=C2C(=C1)C3=NNC4=CC=CC(=C43)C2=O
Method in brief: as §1

[8] = compound: C1CCN(C1)C(=O)NC2=CC=CC(=C2)NC3=NC=C(C(=N3)NCCC4=CN=CN4)Br
Method in brief: as §1

[9] = compound: C1CN(CCC1(CC2=CC=C(C=C2)Cl)N)C3=NC=NC4=C3C=CN4
Method in brief: as §1

Measured: log2 fold change

SLC9A6 isoform 2 (UniProt Q92581)
inactive: erlotinib -0.024 | [1] 0.014 | [2] 0.053 | [3] 0.026 | [4] -0.009 | [5] 0.029 | [6] -0.04 | [7] -0.056 | [8] -0.013 | [9] 0.031

SNAPIN (UniProt O95295)
inactive: erlotinib 0.022 | [1] 0.022 | [2] 0.124 | [3] 0.052 | [4] 0.072 | [5] 0.049 | [6] -0.065 | [7] 0.054 | [8] -0.021 | [9] -0.049

SMARCD2 (UniProt Q92925)
inactive: erlotinib 0.031 | [1] 0.125 | [3] 0.092 | [4] -0.006 | [7] 0.049 | [8] -0.225 | [9] -0.319

SORD (UniProt Q00796)
inactive: erlotinib -0.035 | [1] -0.003 | [2] 0.043 | [3] 0.055 | [4] 0.018 | [5] -0.013 | [6] -0.021 | [7] -0.04 | [8] 0.003 | [9] 0.049

SNRPG (UniProt P62308)
inactive: erlotinib 0.022 | [1] -0.009 | [2] -0.067 | [3] 0.018 | [4] 0.003 | [5] 0.031 | [6] -0.079 | [7] -0.027 | [8] -0.004 | [9] -0.019

SLC9A6 isoform 3 (UniProt Q92581)
inactive: erlotinib 0.006 | [1] 0.013 | [3] -0.103 | [4] -0.022 | [5] 0.18 | [7] -0.068 | [8] 0.021 | [9] 0.006

SMIM4 (UniProt Q8WVI0)
inactive: erlotinib -0.163 | [1] 0.002 | [2] -0.045 | [3] 0.126 | [4] -0.04 | [5] -0.118 | [7] 0.156 | [8] 0.084 | [9] -0.134

SNAPC5 (UniProt O75971)
inactive: erlotinib -0.102 | [1] -0.012 | [2] 0.082 | [3] 0.067 | [4] -0.052 | [5] 0.103 | [7] -0.143 | [8] -0.08 | [9] -0.01

SNX27 (UniProt Q96L92)
inactive: erlotinib 0.023 | [1] -0.029 | [2] -0.265 | [3] 0.075 | [4] -0.007 | [6] 0.206 | [7] 0.18 | [8] -0.125 | [9] 0.023

SMC1A (UniProt Q14683)
inactive: erlotinib 0 | [1] 0.061 | [2] 0.027 | [3] 0.004 | [4] -0.003 | [5] -0.003 | [6] -0.015 | [7] -0.137 | [8] -0.051 | [9] 0.004

SMARCC1 (UniProt Q92922)
inactive: erlotinib 0.067 | [1] 0.04 | [2] -0.06 | [3] 0.088 | [4] 0.092 | [5] 0.025 | [6] 0.05 | [7] -0.051 | [8] -0.153 | [9] -0.168

SLC9A1 (UniProt P19634)
inactive: erlotinib -0.065 | [1] 0.071 | [2] 0.084 | [3] 0.1 | [4] 0.002 | [5] 0.054 | [7] 0.018 | [8] 0.179 | [9] 0.157

SMIM1 (UniProt B2RUZ4)
inactive: erlotinib 0.05 | [1] -0.103 | [3] -0.15 | [4] 0.156 | [5] 0.055 | [7] -0.096 | [8] 0.019 | [9] 0.006

SOAT1 (UniProt P35610)
inactive: erlotinib 0.174 | [1] 0.099 | [2] -0.034 | [3] -0.063 | [4] 0.141 | [5] 0.063 | [6] 0.074 | [7] -0.038 | [8] 0.001 | [9] 0.026

SPAG9 isoform 4 (UniProt O60271)
inactive: erlotinib 0.019 | [1] 0.048 | [3] -0.087 | [4] -0.103 | [5] -0.065 | [6] 0.272 | [7] 0.04 | [8] 0.03 | [9] 0.119

SNCG (UniProt O76070)
inactive: erlotinib 0.031 | [1] -0.026 | [2] 0.066 | [3] 0.001 | [4] -0.015 | [5] 0.056 | [6] -0.035 | [7] -0.014 | [8] 0.068 | [9] 0.04

SNX6 (UniProt Q9UNH7)
inactive: erlotinib 0.093 | [1] 0.056 | [2] 0.035 | [3] 0.017 | [4] 0.042 | [5] -0.057 | [6] -0.053 | [7] -0.159 | [8] 0.053 | [9] -0.018

SNRPB isoform 3 (UniProt P14678)
inactive: erlotinib -0.043 | [1] -0.021 | [2] -0.149 | [3] 0.044 | [4] -0.07 | [5] 0.068 | [6] 0.172 | [7] -0.046 | [8] 0.041 | [9] -0.024

SMCR8 (UniProt Q8TEV9)
inactive: erlotinib -0.021 | [1] 0.06 | [2] -0.066 | [3] 0.064 | [4] 0.053 | [5] -0.04 | [7] -0.011 | [8] 0.036 | [9] 0.084

Copied from the entries so far (nine entries):
SMC1A (UniProt Q14683)
inactive: erlotinib 0 | [1] 0.061 | [2] 0.027 | [3] 0.004 | [4] -0.003 | [5] -0.003 | [6] -0.015 | [7] -0.137 | [8] -0.051 | [9] 0.004

SMARCC1 (UniProt Q92922)
inactive: erlotinib 0.067 | [1] 0.04 | [2] -0.06 | [3] 0.088 | [4] 0.092 | [5] 0.025 | [6] 0.05 | [7] -0.051 | [8] -0.153 | [9] -0.168

SLC9A1 (UniProt P19634)
inactive: erlotinib -0.065 | [1] 0.071 | [2] 0.084 | [3] 0.1 | [4] 0.002 | [5] 0.054 | [7] 0.018 | [8] 0.179 | [9] 0.157

SMIM1 (UniProt B2RUZ4)
inactive: erlotinib 0.05 | [1] -0.103 | [3] -0.15 | [4] 0.156 | [5] 0.055 | [7] -0.096 | [8] 0.019 | [9] 0.006

SOAT1 (UniProt P35610)
inactive: erlotinib 0.174 | [1] 0.099 | [2] -0.034 | [3] -0.063 | [4] 0.141 | [5] 0.063 | [6] 0.074 | [7] -0.038 | [8] 0.001 | [9] 0.026

SPAG9 isoform 4 (UniProt O60271)
inactive: erlotinib 0.019 | [1] 0.048 | [3] -0.087 | [4] -0.103 | [5] -0.065 | [6] 0.272 | [7] 0.04 | [8] 0.03 | [9] 0.119

SNCG (UniProt O76070)
inactive: erlotinib 0.031 | [1] -0.026 | [2] 0.066 | [3] 0.001 | [4] -0.015 | [5] 0.056 | [6] -0.035 | [7] -0.014 | [8] 0.068 | [9] 0.04

SNX6 (UniProt Q9UNH7)
inactive: erlotinib 0.093 | [1] 0.056 | [2] 0.035 | [3] 0.017 | [4] 0.042 | [5] -0.057 | [6] -0.053 | [7] -0.159 | [8] 0.053 | [9] -0.018

SNRPB isoform 3 (UniProt P14678)
inactive: erlotinib -0.043 | [1] -0.021 | [2] -0.149 | [3] 0.044 | [4] -0.07 | [5] 0.068 | [6] 0.172 | [7] -0.046 | [8] 0.041 | [9] -0.024

Additional records follow:

SP100 isoform 4 (UniProt P23497)
inactive: erlotinib 0.011 | [1] 0.044 | [2] 0.037 | [3] 0.022 | [4] -0.071 | [5] 0.063 | [6] 0.033 | [7] -0.05 | [8] -0.001 | [9] 0.035

SOD2 (UniProt P04179)
inactive: erlotinib 0.024 | [1] -0.025 | [2] 0.026 | [3] -0.033 | [4] -0.088 | [5] 0.018 | [6] 0.045 | [7] 0.013 | [8] 0.04 | [9] 0.058

SMIM15 (UniProt Q7Z3B0)
inactive: erlotinib -0.031 | [1] 0.036 | [2] -0.076 | [3] -0.058 | [4] 0.009 | [5] 0 | [7] 0.148 | [8] -0.039 | [9] 0.088

SNAP47 (UniProt Q5SQN1)
inactive: erlotinib 0.104 | [2] -0.374 | [3] -0.105

SMNDC1 (UniProt O75940)
inactive: erlotinib -0.025 | [1] -0.052 | [2] -0.006 | [3] -0.028 | [4] -0.016 | [5] 0.039 | [6] 0.021 | [7] 0.018 | [8] 0.017 | [9] -0.008

SNX25 (UniProt Q9H3E2)
inactive: erlotinib -0.22 | [1] -0.364 | [3] 0.001 | [4] 0.149 | [7] -0.039

SNAP23 (UniProt O00161)
inactive: erlotinib -0.017 | [1] 0.007 | [2] -0.001 | [3] 0.015 | [4] -0.045 | [5] 0.04 | [6] -0.021 | [7] 0.051 | [8] 0.015 | [9] 0.002

SNAP29 (UniProt O95721)
inactive: erlotinib 0.041 | [1] 0.002 | [2] 0.045 | [3] 0.01 | [4] -0.025 | [5] 0.048 | [6] -0.015 | [7] -0.007 | [8] 0.033 | [9] 0.038

SOX5 (UniProt P35711)
inactive: erlotinib 0.009 | [1] 0.006 | [3] 0.125 | [4] 0.047 | [5] 0.018 | [6] -0.049 | [7] 0.012 | [8] -0.069 | [9] 0.095

SMAP2 (UniProt Q8WU79)
inactive: erlotinib -0.044 | [1] 0.13 | [2] -0.005 | [3] -0.032 | [4] -0.029 | [5] 0.019 | [6] -0.015 | [7] 0.017 | [8] -0.086 | [9] 0.038

SMC1B isoform 3 (UniProt Q8NDV3)
inactive: erlotinib 0.039 | [1] 0.142 | [2] -0.01 | [3] -0.01 | [4] -0.008 | [5] -0.219 | [6] -0.099 | [7] -0.072 | [8] -0.101 | [9] -0.05

SNRPF (UniProt P62306)
inactive: erlotinib -0.079 | [1] -0.054 | [2] 0.011 | [3] 0.005 | [4] -0.181 | [5] 0.114 | [6] 0.073 | [7] -0.04 | [8] 0.073 | [9] -0.037
